{"source": "paper PMC9036128", "about": "“An anti-ANGPTL3/8 antibody decreases circulating triglycerides by binding to a LPL-inhibitory leucine zipper-like motif” (Journal of Lipid Research, 2022)", "key": {"[1]": {"biological_target": "T1, avidin-tagged LPL copurified with GPIHBP1 (human) (UniProt P06858+Q8IV16)", "T1 sequence 1": "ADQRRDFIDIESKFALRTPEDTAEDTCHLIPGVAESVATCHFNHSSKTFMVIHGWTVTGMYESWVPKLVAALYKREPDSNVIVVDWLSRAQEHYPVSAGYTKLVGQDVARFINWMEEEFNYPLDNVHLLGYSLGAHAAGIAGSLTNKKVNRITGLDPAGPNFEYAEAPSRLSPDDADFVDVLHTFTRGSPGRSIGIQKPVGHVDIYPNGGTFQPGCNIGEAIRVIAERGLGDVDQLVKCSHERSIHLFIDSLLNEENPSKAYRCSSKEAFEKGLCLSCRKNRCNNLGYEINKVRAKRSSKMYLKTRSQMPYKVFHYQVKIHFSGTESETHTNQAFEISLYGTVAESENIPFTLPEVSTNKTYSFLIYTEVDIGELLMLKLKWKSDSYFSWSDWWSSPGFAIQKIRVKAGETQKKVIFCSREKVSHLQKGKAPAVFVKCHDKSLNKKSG", "T1 sequence 2": "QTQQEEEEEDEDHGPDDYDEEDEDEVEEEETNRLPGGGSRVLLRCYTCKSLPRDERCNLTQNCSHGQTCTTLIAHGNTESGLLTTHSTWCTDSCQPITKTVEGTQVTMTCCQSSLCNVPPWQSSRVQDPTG", "test": "BLI; Octet RED96e; avidin-tagged LPL copurified with GPIHBP1 immobilised on streptavidin biosensors; ANGPTL3/8 preincubated 30 min at room temperature with no antibody, an irrelevant isotype-matched control antibody or the anti-ANGPTL3/8 antibody (10:1 antibody:ANGPTL3/8); dissociation in buffer-only wells; both purified"}, "[2]": {"biological_target": "T2, human GPIHBP1-LPL complex (human) (UniProt P06858+Q8IV16)", "T2 sequence 1": "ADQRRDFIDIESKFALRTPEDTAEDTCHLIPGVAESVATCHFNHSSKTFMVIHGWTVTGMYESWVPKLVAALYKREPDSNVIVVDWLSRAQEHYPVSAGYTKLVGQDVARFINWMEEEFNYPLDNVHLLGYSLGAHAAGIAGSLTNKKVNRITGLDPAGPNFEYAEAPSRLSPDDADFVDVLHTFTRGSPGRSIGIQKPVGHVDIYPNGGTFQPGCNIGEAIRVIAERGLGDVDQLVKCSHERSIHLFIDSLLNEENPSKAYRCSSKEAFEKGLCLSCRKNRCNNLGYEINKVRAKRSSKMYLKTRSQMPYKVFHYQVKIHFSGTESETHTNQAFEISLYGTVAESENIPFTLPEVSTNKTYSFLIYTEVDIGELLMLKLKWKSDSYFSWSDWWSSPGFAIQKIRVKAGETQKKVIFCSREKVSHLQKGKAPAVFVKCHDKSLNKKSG", "T2 sequence 2": "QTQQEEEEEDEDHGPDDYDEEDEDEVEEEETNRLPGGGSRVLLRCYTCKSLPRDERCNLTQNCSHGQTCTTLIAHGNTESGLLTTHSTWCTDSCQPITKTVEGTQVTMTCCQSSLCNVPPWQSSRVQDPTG", "test": "HDX-MS; ANGPTL3/8 complex (12 uM) bound by GPIHBP1-LPL (18 uM) or ApoA5 (18 uM) against unbound complex; pH 7.4, 10 mM sodium phosphate, 150 mM NaCl, 15 C; 10 s, 2 min, 10 min, 60 min; nepenthesin II digestion; triplicate; both purified"}, "[3]": {"biological_target": "T3, human ANGPTL3/8 complex (human) (UniProt Q9Y5C1+Q6UXH0)", "T3 sequence 1": "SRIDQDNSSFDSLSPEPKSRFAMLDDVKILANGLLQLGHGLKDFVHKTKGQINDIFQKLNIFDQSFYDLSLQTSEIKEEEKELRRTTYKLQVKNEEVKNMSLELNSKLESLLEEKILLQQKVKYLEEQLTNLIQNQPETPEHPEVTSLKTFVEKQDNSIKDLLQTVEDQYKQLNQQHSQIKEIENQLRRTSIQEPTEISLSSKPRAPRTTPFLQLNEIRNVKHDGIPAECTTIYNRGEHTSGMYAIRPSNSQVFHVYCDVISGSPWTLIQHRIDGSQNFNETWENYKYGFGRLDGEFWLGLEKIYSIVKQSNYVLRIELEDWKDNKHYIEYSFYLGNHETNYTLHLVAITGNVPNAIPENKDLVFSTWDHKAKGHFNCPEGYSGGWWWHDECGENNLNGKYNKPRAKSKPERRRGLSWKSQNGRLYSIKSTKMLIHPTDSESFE", "T3 sequence 2": "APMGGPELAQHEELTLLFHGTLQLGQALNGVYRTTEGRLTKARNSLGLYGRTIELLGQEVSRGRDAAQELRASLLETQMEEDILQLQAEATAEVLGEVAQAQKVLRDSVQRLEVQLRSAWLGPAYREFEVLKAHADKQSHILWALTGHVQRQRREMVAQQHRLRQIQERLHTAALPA", "test": "HDX-MS; ANGPTL3/8 complex (12 uM) bound by GPIHBP1-LPL (18 uM) or ApoA5 (18 uM) against unbound complex; pH 7.4, 10 mM sodium phosphate, 150 mM NaCl, 15 C; 10 s, 2 min, 10 min, 60 min; nepenthesin II digestion; triplicate; both purified"}, "[4]": {"biological_target": "T4, HIS tag-mature human LPL (residues 28-475) (human) (UniProt P06858)", "T4 sequence": "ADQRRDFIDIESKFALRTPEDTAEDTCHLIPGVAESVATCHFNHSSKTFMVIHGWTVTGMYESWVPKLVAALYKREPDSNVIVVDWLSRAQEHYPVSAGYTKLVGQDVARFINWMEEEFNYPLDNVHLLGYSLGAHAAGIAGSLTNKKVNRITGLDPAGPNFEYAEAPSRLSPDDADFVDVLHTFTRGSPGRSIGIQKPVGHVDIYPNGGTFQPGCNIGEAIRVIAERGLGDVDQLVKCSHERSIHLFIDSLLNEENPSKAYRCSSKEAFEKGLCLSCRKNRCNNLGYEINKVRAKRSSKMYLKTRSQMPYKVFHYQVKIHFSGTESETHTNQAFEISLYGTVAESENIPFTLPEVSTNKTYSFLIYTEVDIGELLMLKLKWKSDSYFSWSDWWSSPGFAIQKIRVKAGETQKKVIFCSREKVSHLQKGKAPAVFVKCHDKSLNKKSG", "test": "co-purification (Ni-NTA affinity, size-exclusion chromatography); HIS-tagged LPL and GPIHBP1(1-151 R58G) cotransfected in HEK293 cells; complex purified from culture media harvested 5 days posttransfection"}}, "note": "Results are given in words; binding and its absence hold for the method and conditions named. Some results given as binding are weak or reduced against the parent protein; the word gives no strength. For some of these results: Sequences can lack the tags named with a protein.", "data": [{"binder": "human ANGPTL3/8 complex (complex, UniProt Q9Y5C1 17-460; Q6UXH0 22-198) chain 1: SRIDQDNSSFDSLSPEPKSRFAMLDDVKILANGLLQLGHGLKDFVHKTKGQINDIFQKLNIFDQSFYDLSLQTSEIKEEEKELRRTTYKLQVKNEEVKNMSLELNSKLESLLEEKILLQQKVKYLEEQLTNLIQNQPETPEHPEVTSLKTFVEKQDNSIKDLLQTVEDQYKQLNQQHSQIKEIENQLRRTSIQEPTEISLSSKPRAPRTTPFLQLNEIRNVKHDGIPAECTTIYNRGEHTSGMYAIRPSNSQVFHVYCDVISGSPWTLIQHRIDGSQNFNETWENYKYGFGRLDGEFWLGLEKIYSIVKQSNYVLRIELEDWKDNKHYIEYSFYLGNHETNYTLHLVAITGNVPNAIPENKDLVFSTWDHKAKGHFNCPEGYSGGWWWHDECGENNLNGKYNKPRAKSKPERRRGLSWKSQNGRLYSIKSTKMLIHPTDSESFE chain 2: APMGGPELAQHEELTLLFHGTLQLGQALNGVYRTTEGRLTKARNSLGLYGRTIELLGQEVSRGRDAAQELRASLLETQMEEDILQLQAEATAEVLGEVAQAQKVLRDSVQRLEVQLRSAWLGPAYREFEVLKAHADKQSHILWALTGHVQRQRREMVAQQHRLRQIQERLHTAALPA", "values": [{"measurement": "binding", "setting": "[1]", "result": "binds"}, {"measurement": "binding", "setting": "[2]", "result": "binds"}]}, {"binder": "human ApoA5 (HSA-tagged) (protein, UniProt Q6Q788 24-366) RKGFWDYFSQTSGDKGRVEQIHQQKMAREPATLKDSLEQDLNNMNKFLEKLRPLSGSEAPRLPQDPVGMRRQLQEELEEVKARLQPYMAEAHELVGWNLEGLRQQLKPYTMDLMEQVALRVQELQEQLRVVGEDTKAQLLGGVDEAWALLQGLQSRVVHHTGRFKELFHPYAESLVSGIGRHVQELHRSVAPHAPASPARLSRCVQVLSRKLTLKAKALHARIQQNLDQLREELSRAFAGTGTEEGAGPDPQMLSEEVRQRLQAFRQDTYLQIAAFTRAIDQETEEVQQQLAPPPPGHSAFAPEFQQTDSGKVLSKLQARLDDLWEDITHSLHDQGHSHLGDP", "values": [{"measurement": "binding", "setting": "[3]", "result": "binds"}]}, {"binder": "GPIHBP1(1-151 R58G) (domain or fragment, UniProt Q8IV16 21-151) QTQQEEEEEDEDHGPDDYDEEDEDEVEEEETNRLPGGGSRVLLRCYTCKSLPRDERCNLTQNCSHGQTCTTLIAHGNTESGLLTTHSTWCTDSCQPITKTVEGTQVTMTCCQSSLCNVPPWQSSRVQDPTG", "values": [{"measurement": "binding", "setting": "[4]", "result": "binds"}]}]}
